Test results published in article PMC6956814, “Deubiquitinase USP28 inhibits ubiquitin ligase KLHL2-mediated uridine-cytidine kinase 1 degradation and confers sensitivity to 5'-azacytidine-resistant human leukemia cells” (Theranostics, 2020).
Results are given in words; binding and its absence hold for the method and conditions named. Binding seen in cells or lysates may run through a third protein. Tags and fused reporters may be left off the sequences shown.

Legend:
[1] = biological target: C-terminal fragment of UCK1 (human); test: pull-down; GST-tagged fragments of UCK1 (and truncated KLHL2 fragments) tested against the other protein, immunoblot; Figure 1F
[2] = biological target: N-terminal fragment of UCK1 (human); test: as above

binding [1]: no binding
binding [2]: no binding
B1: His-tagged KLHL2 protein (protein, UniProt O95198 1-593)
chain: METPPLPPACTKQGHQKPLDSKDDNTEKHCPVTVNPWHMKKAFKVMNELRSQNLLCDVTIVAEDMEISAHRVVLAACSPYFHAMFTGEMSESRAKRVRIKEVDGWTLRMLIDYVYTAEIQVTEENVQVLLPAAGLLQLQDVKKTCCEFLESQLHPVNCLGIRAFADMHACTDLLNKANTYAEQHFADVVLSEEFLNLGIEQVCSLISSDKLTISSEEKVFEAVIAWVNHDKDVRQEFMARLMEHVRLPLLPREYLVQRVEEEALVKNSSACKDYLIEAMKYHLLPTEQRILMKSVRTRLRTPMNLPKLMVVVGGQAPKAIRSVECYDFKEERWHQVAELPSRRCRAGMVYMAGLVFAVGGFNGSLRVRTVDSYDPVKDQWTSVANMRDRRSTLGAAVLNGLLYAVGGFDGSTGLSSVEAYNIKSNEWFHVAPMNTRRSSVGVGVVGGLLYAVGGYDGASRQCLSTVECYNATTNEWTYIAEMSTRRSGAGVGVLNNLLYAVGGHDGPLVRKSVEVYDPTTNAWRQVADMNMCRRNAGVCAVNGLLYVVGGDDGSCNLASVEYYNPTTDKWTVVSSCMSTGRSYAGVTVIDKPL
